Binding data for 2 substances are collected here from article PMC12673092.

Chains of the proteins cited; added tags and fusions are not shown.
UniProt P35637: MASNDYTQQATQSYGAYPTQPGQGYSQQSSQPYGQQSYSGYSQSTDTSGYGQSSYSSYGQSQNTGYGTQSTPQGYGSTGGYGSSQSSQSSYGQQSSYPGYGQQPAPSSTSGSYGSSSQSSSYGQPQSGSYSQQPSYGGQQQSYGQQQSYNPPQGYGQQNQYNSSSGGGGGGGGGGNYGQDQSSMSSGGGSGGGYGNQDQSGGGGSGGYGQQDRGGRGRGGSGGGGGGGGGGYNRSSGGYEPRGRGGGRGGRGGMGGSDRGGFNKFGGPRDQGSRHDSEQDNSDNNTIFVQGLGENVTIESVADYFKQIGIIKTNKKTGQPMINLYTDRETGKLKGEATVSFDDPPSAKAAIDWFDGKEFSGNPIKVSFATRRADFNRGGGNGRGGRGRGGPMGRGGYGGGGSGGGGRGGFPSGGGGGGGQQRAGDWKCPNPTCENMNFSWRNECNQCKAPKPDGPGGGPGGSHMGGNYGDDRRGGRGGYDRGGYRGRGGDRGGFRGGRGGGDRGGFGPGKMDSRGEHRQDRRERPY
UniProt Q01844: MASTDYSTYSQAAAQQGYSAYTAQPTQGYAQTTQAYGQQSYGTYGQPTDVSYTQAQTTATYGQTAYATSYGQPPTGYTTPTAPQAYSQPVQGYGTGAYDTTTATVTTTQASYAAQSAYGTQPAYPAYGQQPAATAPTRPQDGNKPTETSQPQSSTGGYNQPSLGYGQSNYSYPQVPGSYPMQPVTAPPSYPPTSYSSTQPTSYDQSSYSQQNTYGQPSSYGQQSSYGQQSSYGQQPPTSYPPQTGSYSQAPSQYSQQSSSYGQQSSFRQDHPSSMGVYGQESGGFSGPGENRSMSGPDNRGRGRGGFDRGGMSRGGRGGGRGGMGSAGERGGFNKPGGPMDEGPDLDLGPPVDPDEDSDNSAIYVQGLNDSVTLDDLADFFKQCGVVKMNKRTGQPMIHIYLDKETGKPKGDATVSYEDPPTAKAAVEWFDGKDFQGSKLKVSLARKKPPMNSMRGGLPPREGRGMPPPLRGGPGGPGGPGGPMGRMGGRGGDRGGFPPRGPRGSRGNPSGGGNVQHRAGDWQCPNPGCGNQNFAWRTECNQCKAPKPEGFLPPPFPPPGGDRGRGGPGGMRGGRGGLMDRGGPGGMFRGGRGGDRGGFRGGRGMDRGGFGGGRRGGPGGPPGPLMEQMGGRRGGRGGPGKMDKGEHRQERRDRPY

One test has as its target untagged FUS (UniProt P35637). In words: dynamic light scattering; self-association into mesoscale clusters at 0.25 uM protein with 60 mM hydrotrope (NaXS or NaTS), ~10 mM KCl, 20 mM HEPES pH 7.4, 24 °C; both purified.
The target of test [1] is EWSR1-SNAP (UniProt Q01844). In words: dynamic light scattering; self-association into mesoscale clusters; 0.25-1 uM protein (0.3 uM EWSR1-SNAP), ~10 mM KCl, 20 mM HEPES pH 7.4, 24 °C, hydrodynamic diameter followed over 32 min; buffer only and with ATP.Mg2+, nucleotides, phosphates, NaXS, NaTS, HD or TEG; 1 uM FUS-SNAP is said to phase separate; both purified.
Test [2] concerns the target EWSR1-SNAP (UniProt Q01844). Kind of test: nanoparticle tracking analysis; self-association into mesoscale clusters; 0.25-1 uM protein (0.3 uM EWSR1-SNAP), 10 mM KCl, 20 mM HEPES pH 7.4, 24 °C, recorded ~6-8 min after sample preparation; buffer only and with small amphiphilic molecules; both purified.

These are yes or no findings as the source states them, for the method shown. Some entries that bind do so weakly or less than the wild type.

Regarding “untagged FUS (from UniProt P35637 1-526)”, the binding entry with untagged FUS is reported as “no binding (condition: with 60 mM NaTS)”.
Consider EWSR1-SNAP (from UniProt Q01844 1-656), for which the binding entry in the test with EWSR1-SNAP [1] and with EWSR1-SNAP [2] was “binds” throughout.
